Assay results from PMC5732150.
No constants are given. Whether binding was seen depends on the method and setting. In cells and extracts the contact can be indirect. Some binding calls cover weakened binding; strength is not graded here.

Chains of the proteins cited; added tags and fusions are not shown.
UniProt P60766: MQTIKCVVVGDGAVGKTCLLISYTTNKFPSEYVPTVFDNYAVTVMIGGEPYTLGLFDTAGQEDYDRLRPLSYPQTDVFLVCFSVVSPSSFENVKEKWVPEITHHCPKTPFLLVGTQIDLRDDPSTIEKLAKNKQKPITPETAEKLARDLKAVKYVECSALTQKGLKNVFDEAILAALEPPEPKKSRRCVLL
UniProt Q9WTI7: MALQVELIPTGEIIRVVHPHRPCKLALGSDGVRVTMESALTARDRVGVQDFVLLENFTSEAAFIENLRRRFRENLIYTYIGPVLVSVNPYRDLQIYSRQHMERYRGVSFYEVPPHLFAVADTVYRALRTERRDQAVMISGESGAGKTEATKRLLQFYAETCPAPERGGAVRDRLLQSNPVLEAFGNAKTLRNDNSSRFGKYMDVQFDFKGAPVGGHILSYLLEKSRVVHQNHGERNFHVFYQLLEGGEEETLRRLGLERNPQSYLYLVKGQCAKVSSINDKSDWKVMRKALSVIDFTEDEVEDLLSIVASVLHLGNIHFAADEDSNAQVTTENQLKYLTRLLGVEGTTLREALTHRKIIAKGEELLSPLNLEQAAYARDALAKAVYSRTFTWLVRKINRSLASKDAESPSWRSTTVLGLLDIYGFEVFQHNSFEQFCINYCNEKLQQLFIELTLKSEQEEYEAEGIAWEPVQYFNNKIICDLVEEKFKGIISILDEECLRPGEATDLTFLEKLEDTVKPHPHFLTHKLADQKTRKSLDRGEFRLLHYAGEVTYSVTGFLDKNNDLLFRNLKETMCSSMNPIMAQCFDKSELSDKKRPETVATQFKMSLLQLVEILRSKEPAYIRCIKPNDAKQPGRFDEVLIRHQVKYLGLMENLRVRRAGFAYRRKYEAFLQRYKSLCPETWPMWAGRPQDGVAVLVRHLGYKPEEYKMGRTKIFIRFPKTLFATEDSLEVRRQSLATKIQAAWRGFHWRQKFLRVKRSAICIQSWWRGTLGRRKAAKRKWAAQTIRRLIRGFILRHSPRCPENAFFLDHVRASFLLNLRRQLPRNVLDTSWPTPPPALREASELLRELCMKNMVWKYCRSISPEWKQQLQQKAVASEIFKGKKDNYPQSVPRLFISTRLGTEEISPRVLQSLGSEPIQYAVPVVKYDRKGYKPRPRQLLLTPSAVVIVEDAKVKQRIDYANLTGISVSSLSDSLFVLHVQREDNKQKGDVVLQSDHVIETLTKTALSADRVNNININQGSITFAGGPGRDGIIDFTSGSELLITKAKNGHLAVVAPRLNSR
UniProt Q9QUI0: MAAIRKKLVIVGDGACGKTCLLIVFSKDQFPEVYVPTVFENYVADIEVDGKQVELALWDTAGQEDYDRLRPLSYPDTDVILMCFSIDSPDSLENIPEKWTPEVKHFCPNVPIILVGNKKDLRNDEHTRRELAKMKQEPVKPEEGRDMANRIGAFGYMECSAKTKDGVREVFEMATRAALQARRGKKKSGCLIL

Molecular target: T1, CD44 (mouse (endogenous in splenic B lymphocytes)) (UniProt P15379)
T1 sequence: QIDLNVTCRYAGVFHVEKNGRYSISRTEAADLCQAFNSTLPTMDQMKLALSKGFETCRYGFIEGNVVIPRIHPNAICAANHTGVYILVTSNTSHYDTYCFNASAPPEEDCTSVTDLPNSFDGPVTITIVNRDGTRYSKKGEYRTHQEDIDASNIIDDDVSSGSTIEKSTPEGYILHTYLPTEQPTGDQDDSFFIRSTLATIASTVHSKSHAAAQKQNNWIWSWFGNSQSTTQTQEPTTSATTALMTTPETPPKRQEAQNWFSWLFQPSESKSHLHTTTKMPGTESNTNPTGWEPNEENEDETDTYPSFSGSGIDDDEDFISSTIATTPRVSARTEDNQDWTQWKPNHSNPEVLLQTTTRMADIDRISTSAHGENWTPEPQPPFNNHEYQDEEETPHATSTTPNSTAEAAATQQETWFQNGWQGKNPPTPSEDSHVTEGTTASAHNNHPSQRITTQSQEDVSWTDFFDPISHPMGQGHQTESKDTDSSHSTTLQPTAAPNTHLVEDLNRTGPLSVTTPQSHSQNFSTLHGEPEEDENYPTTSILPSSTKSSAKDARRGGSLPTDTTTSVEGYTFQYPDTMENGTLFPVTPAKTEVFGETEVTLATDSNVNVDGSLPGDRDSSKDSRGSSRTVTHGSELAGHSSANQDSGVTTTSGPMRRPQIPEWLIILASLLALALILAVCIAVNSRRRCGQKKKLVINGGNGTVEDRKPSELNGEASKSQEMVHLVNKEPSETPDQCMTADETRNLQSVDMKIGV
Assay: co-IP; Lysates (RIPA buffer, 1% Triton X-100) of resting, LPS plus IL-4 activated, HA-stimulated or CD44-capped mouse B lymphocytes; precipitated with α-Myo1g or NIM-R8 (α-CD44), 4 h at 4°C, protein G-agarose; Western blot; CD44 precipitates compared between WT and Myo1g-deficient cells

Row | Substance | binding
1 | CDC42 (from UniProt P60766 1-191) | binds
2 | Myo1c (from UniProt Q9WTI7 1-1063) | binds
3 | RhoA (from UniProt Q9QUI0 1-193) | binds
